Source: US8865217B2, “Oral preparation comprising pioglitazone” (Takeda Pharmaceutical Company Limited, priority 2006, dated 2014)

Assay: bitter taste suppressing effect of alkali metal chlorides on bitter drugs (finding of the inventors)
Conditions: for the named bitter drug

cefotiam hexetil hydrochloride
bitter taste suppressing effect of alkali metal chlorides: do not exhibit a bitter taste suppressing effect
